39 targets from the supplement of paper PMC10849652 can be followed below.

Sequences of proteins named here, by UniProt entry; tags and fusion partners are left off. A change or cut given only in a name is not applied to a line headed by its entry.
UniProt A0JNW5: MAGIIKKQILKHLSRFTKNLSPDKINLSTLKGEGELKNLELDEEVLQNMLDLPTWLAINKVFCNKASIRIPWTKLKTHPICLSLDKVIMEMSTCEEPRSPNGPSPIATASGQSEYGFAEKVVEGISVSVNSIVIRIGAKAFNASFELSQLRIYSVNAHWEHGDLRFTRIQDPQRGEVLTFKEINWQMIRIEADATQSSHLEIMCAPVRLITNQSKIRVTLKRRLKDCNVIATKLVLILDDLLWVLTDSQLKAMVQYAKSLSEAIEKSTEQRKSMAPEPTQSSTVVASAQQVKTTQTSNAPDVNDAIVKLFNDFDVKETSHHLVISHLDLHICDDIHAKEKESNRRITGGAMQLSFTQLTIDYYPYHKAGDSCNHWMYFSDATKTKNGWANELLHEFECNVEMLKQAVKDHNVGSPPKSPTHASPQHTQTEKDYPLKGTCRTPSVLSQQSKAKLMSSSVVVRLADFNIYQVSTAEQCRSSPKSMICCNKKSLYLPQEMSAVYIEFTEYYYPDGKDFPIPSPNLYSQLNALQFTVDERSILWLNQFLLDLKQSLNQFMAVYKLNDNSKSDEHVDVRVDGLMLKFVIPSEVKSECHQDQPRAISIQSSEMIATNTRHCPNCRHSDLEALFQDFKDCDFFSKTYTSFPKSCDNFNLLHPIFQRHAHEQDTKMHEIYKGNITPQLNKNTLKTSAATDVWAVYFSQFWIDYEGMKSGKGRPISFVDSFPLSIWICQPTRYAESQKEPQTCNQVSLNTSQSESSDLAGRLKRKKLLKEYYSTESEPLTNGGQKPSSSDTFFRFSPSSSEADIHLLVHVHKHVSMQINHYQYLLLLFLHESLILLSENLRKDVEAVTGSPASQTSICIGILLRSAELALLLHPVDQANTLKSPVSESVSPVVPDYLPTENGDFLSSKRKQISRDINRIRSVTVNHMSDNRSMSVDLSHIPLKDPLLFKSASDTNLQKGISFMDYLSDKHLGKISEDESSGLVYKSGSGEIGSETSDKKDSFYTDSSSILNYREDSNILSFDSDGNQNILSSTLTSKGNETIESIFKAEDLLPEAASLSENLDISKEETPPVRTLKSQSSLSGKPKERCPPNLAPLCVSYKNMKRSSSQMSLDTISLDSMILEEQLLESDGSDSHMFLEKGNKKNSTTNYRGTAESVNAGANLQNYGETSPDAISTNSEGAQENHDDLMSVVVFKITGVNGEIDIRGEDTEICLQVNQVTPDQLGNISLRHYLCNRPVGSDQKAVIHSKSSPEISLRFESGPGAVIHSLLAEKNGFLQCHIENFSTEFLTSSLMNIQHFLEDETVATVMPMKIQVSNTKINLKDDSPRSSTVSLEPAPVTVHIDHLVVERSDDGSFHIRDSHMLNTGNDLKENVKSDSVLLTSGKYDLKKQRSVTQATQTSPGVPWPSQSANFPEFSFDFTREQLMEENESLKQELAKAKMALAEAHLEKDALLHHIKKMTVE
UniProt P22695: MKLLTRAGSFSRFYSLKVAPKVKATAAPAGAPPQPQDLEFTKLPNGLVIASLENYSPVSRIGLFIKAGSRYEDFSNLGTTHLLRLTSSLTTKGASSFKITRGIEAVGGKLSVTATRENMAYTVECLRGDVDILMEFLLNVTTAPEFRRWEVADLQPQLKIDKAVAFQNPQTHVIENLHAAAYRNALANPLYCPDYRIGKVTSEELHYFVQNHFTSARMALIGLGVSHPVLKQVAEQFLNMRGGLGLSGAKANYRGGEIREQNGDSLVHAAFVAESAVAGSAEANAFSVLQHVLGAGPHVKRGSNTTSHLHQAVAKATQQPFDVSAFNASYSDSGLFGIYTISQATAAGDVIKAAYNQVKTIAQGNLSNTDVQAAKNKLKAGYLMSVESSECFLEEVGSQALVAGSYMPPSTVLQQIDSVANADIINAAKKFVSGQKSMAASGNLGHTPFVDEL
UniProt O94763, whole entry, looked up: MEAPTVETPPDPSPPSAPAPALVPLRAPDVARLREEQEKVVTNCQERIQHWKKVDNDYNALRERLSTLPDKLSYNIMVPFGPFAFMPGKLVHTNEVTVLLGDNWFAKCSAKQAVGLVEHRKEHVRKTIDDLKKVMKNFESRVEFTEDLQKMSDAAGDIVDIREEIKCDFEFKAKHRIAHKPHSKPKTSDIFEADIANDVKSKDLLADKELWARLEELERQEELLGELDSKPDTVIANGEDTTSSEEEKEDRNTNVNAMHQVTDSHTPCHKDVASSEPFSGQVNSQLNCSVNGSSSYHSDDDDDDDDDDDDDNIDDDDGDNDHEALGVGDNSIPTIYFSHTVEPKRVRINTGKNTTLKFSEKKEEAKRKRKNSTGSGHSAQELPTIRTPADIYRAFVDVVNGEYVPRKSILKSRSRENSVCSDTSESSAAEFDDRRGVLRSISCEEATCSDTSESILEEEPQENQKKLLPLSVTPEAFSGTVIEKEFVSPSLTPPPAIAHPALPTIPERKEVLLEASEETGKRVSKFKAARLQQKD
UniProt O60763: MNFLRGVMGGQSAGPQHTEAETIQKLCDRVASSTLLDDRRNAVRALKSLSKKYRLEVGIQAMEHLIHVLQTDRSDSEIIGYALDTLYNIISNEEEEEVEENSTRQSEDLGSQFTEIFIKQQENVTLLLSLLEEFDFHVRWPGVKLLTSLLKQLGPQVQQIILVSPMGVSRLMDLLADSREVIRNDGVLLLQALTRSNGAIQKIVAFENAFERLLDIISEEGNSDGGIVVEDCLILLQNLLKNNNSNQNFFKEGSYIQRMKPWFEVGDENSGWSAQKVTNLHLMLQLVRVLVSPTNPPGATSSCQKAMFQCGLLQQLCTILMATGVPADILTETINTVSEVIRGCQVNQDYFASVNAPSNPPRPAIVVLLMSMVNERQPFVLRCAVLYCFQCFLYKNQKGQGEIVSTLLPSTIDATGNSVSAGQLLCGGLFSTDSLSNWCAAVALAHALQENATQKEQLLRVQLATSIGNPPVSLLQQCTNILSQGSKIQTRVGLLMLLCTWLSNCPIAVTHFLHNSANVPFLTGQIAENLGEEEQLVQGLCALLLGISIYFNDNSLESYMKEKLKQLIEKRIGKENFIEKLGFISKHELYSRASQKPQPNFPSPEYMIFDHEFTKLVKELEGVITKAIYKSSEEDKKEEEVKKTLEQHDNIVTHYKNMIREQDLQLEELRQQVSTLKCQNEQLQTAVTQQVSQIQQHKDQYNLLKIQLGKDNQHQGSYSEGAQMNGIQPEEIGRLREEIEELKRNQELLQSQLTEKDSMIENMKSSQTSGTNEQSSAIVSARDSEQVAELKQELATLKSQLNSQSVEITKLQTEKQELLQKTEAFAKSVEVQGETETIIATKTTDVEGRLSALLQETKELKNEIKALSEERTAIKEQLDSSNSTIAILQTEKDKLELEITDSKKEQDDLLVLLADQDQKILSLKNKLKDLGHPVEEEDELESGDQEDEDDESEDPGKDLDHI
UniProt Q9Y3C8: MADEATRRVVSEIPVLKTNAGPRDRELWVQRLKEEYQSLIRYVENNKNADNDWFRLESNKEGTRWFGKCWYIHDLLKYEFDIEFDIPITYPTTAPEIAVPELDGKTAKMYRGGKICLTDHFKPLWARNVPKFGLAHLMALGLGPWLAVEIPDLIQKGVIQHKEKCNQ
UniProt Q9Y5T5, whole entry, looked up: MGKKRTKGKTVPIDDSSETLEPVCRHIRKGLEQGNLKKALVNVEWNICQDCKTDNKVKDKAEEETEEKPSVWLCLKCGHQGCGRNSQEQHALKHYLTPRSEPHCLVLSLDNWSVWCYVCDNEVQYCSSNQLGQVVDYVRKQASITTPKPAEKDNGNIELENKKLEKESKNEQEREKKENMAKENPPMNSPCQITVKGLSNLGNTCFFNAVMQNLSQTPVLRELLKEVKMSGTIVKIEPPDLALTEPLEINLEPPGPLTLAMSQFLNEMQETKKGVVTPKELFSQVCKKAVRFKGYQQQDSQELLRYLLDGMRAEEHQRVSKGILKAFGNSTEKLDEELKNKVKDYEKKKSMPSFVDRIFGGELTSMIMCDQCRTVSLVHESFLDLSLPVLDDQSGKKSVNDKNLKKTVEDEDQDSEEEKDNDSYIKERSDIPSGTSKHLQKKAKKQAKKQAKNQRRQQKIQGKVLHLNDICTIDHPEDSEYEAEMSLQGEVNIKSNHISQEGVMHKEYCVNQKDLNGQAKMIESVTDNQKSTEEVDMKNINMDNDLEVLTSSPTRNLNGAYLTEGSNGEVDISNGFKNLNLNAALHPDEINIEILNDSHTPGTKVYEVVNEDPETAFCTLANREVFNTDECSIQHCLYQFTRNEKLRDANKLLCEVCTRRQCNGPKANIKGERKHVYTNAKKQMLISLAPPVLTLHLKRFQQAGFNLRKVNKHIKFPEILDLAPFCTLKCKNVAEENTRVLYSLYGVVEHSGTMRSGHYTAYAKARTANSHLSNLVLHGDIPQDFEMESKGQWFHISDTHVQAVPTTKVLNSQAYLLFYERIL
UniProt Q9Y4E8: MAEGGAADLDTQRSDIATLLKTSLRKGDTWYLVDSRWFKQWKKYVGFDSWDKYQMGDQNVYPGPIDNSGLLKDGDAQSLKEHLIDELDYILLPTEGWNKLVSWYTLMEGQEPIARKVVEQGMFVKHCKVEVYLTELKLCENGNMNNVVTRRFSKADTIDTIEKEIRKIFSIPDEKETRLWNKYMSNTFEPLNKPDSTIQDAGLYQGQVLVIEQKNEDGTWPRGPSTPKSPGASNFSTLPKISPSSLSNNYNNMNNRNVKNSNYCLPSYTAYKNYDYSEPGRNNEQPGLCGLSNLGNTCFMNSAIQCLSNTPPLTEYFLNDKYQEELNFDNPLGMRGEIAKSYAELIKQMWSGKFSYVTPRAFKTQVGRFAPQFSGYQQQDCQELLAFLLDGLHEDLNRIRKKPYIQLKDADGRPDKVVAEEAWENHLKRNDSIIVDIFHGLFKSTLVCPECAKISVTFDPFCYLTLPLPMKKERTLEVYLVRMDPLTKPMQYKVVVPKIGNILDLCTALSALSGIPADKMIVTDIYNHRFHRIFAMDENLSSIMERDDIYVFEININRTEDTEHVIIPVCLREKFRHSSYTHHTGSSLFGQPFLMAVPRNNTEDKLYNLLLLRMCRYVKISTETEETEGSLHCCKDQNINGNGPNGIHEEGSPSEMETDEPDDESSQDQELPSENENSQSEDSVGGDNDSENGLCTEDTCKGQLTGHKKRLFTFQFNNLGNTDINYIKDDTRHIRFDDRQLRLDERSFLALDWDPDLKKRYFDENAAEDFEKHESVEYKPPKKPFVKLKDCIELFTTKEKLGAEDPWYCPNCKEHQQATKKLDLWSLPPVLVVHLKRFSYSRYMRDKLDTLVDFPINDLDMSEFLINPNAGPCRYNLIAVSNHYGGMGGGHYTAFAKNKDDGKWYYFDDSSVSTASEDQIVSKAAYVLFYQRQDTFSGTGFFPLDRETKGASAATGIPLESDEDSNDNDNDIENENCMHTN
UniProt Q16739: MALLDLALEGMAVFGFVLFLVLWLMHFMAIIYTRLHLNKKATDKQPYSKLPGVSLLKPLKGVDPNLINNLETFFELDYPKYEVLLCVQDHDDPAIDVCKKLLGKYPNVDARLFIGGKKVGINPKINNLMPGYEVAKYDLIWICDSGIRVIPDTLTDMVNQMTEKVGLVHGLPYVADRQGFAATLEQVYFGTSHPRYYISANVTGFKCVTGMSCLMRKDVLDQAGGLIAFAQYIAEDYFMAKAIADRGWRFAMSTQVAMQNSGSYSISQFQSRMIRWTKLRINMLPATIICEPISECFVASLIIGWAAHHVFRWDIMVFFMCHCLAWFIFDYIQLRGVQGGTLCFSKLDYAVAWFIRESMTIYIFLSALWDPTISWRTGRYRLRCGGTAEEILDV
UniProt P06132: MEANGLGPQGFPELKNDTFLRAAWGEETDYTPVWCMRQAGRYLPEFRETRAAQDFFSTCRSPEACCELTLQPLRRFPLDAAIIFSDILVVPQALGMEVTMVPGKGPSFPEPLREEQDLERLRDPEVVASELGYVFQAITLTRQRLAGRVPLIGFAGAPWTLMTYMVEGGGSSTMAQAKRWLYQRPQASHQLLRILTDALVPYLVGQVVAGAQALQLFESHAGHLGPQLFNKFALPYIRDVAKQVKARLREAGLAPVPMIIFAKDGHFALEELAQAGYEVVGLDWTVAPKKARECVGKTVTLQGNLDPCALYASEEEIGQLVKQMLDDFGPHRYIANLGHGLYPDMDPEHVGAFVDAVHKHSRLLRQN
UniProt Q9Y5K5, whole entry, looked up: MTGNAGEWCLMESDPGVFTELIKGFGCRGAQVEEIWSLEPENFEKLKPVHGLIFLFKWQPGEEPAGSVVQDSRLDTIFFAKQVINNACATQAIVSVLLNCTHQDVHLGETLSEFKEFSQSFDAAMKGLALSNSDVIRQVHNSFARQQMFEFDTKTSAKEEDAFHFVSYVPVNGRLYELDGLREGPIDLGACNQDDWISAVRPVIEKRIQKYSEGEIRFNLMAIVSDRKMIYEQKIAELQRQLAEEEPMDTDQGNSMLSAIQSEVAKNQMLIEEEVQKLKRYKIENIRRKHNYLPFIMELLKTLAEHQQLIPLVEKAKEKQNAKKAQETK

The other results are listed elsewhere or left out.

Compound in one assay: C1=CC=C2C(=C1)C3=NNC4=CC=CC(=C43)C2=O
Briefly: log2 fold change, soluble protein after heating vs DMSO (PISA); higher = thermal stabilisation; K562 cells, 10 uM, 30 min; active = over 0.2 and 3.5 SD of the protein, either way, in both replicates (recomputed). Summed up:
(§1)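 K562 cells at 2×10^6 cells/mL were treated for 30 min with 10 μM compound, and aliquots were heated for 3 min over 48°C-58°C before pooling. Extraction used PBS with 0.5% NP-40 at 4°C, and soluble protein was the supernatant after 21,000xg for 90 min, measured by TMTpro 16plex LC-MS/MS with channel sums equalised. Thermal stability values, relative to control samples and from duplicates, are log2 fold changes.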
Consider USF1 (UniProt P22415), for which the log2 fold change was inactive: 0.053. For the target UHRF1BP1L (UniProt A0JNW5), the log2 fold change was inactive: 0.025.

As for VBP1 (UniProt P61758), the log2 fold change is inactive: -0.003. For the target UTP15 (UniProt Q8TED0), the log2 fold change is inactive: 0.082. For the target UPRT (UniProt Q96BW1), the log2 fold change was inactive: -0.118. UGP2 (UniProt Q16851): the log2 fold change was inactive: 0.

Take UGT8 (UniProt Q16880): the log2 fold change was inactive: -0.098.

With UMPS (UniProt P11172), the log2 fold change was inactive: -0.01. For the target UPF3B (UniProt Q9BZI7), the log2 fold change was inactive: -0.016.

On to UVRAG (UniProt Q9P2Y5), for which the log2 fold change was inactive: 0.049. Consider VAMP7 (UniProt P51809), for which the log2 fold change is inactive: -0.001. On the same count and under the same terms, the value for UQCRC2 (UniProt P22695) was inactive: -0.003; that for USP20 (UniProt Q9Y2K6) was inactive: 0.03. Take VCP (UniProt P55072): the log2 fold change is inactive: -0.002. Consider URI1 isoform 4 (UniProt O94763), for which the log2 fold change is inactive: -0.153. As for USO1 isoform 2 (UniProt O60763), the log2 fold change is inactive: -0.028.

In the case of UFC1 (UniProt Q9Y3C8), the log2 fold change was inactive: -0.042. Consider VAMP4 (UniProt O75379), for which the log2 fold change is inactive: -0.033. Still for that read-out and setting: the value for UBL4A (UniProt P11441) was inactive: -0.012; that for UFSP2 (UniProt Q9NUQ7) was inactive: -0.008. As to VAC14 (UniProt Q08AM6), the log2 fold change is inactive: 0.003. For USP25 isoform 3 (UniProt Q9UHP3), the log2 fold change is inactive: 0.011.

For the target USP3 (UniProt Q9Y6I4), the log2 fold change was inactive: -0.052.

As for USP16 (UniProt Q9Y5T5), the log2 fold change is inactive: -0.169.

Turning to USP15 (UniProt Q9Y4E8), the log2 fold change was inactive: 0.012.

UXS1 isoform 2 (UniProt Q8NBZ7): the log2 fold change was inactive: 0.021. Consider UGCG (UniProt Q16739), for which the log2 fold change was inactive: 0.006.

With USP34 (UniProt Q70CQ2), the log2 fold change was inactive: -0.043.

As for UQCC2 (UniProt Q9BRT2), the log2 fold change is inactive: 0.045.

As to UNC93B1 (UniProt Q9H1C4), the log2 fold change is inactive: -0.066. Still for that read-out and setting: the value for UBR2 (UniProt Q8IWV8) was inactive: -0.189; that for URI1 (UniProt O94763) was inactive: -0.03.

On to UXT isoform 2 (UniProt Q9UBK9), for which the log2 fold change is inactive: 0.012.

Regarding UROD (UniProt P06132), the log2 fold change is inactive: -0.012. Regarding UCHL5 (UniProt Q9Y5K5), the log2 fold change was inactive: 0.03.

With UCHL5 isoform 3 (UniProt Q9Y5K5), the log2 fold change is inactive: 0.102.

Consider UQCRFS1 (UniProt P47985), for which the log2 fold change was inactive: 0.004. Consider UBXN4 (UniProt Q92575), for which the log2 fold change is inactive: 0.008.

As to UCK2 (UniProt Q9BZX2), the log2 fold change was inactive: 0.002.

Compound in a further assay: C1CCN(C1)C(=O)NC2=CC=CC(=C2)NC3=NC=C(C(=N3)NCCC4=CN=CN4)Br
Described as above. Summed up: as §1
In the case of UHRF1BP1L (UniProt A0JNW5), the log2 fold change was inactive: -0.007. The same measure, in the same setting: the figure for VBP1 (UniProt P61758) is inactive: 0.029.

Regarding UTP15 (UniProt Q8TED0), the log2 fold change is inactive: 0.024. Still for that read-out and setting: the value for UGP2 (UniProt Q16851) was inactive: -0.004; that for UGT8 (UniProt Q16880) was inactive: -0.019; that for UMPS (UniProt P11172) was inactive: -0.011.

Consider UPF3B (UniProt Q9BZI7), for which the log2 fold change is inactive: 0.117.

In the case of UVRAG (UniProt Q9P2Y5), the log2 fold change was inactive: -0.052.

Consider VAMP7 (UniProt P51809), for which the log2 fold change was inactive: 0.001. As for UQCRC2 (UniProt P22695), the log2 fold change is inactive: 0.008. On to VCP (UniProt P55072), for which the log2 fold change is inactive: 0.028.

Consider URI1 isoform 4 (UniProt O94763), for which the log2 fold change is inactive: -0.095. USO1 isoform 2 (UniProt O60763): the log2 fold change is inactive: 0.033. Consider UFC1 (UniProt Q9Y3C8), for which the log2 fold change was inactive: 0.009. VAMP4 (UniProt O75379): the log2 fold change was inactive: -0.003.

In the case of UBL4A (UniProt P11441), the log2 fold change was inactive: -0.044. The same measure, in the same setting: the figure for UFSP2 (UniProt Q9NUQ7) is inactive: 0.019; for VAC14 (UniProt Q08AM6) it is inactive: -0.007; for USP25 isoform 3 (UniProt Q9UHP3) it is inactive: -0.038. Consider USP3 (UniProt Q9Y6I4), for which the log2 fold change is inactive: 0.007.

Regarding USP16 (UniProt Q9Y5T5), the log2 fold change was inactive: -0.23. For USP15 (UniProt Q9Y4E8), the log2 fold change is inactive: -0.011.

In the case of UXS1 isoform 2 (UniProt Q8NBZ7), the log2 fold change is inactive: 0.023. With UGCG (UniProt Q16739), the log2 fold change is inactive: -0.456. As to USP34 (UniProt Q70CQ2), the log2 fold change is inactive: 0.015. As for UQCC2 (UniProt Q9BRT2), the log2 fold change is inactive: -0.15. Still for that read-out and setting: the figure for UBR2 (UniProt Q8IWV8) is inactive: 0.016. For URI1 (UniProt O94763), the log2 fold change was inactive: -0.101. The same measure, in the same setting: the value for UXT isoform 2 (UniProt Q9UBK9) was inactive: -0.036; that for UROD (UniProt P06132) was inactive: 0.004. Still for that read-out and setting: the figure for UCHL5 (UniProt Q9Y5K5) is inactive: -0.001; for UCHL5 isoform 3 (UniProt Q9Y5K5) it is inactive: 0.207. With UQCRFS1 (UniProt P47985), the log2 fold change was inactive: 0.014. Turning to UBXN4 (UniProt Q92575), the log2 fold change is inactive: -0.016.

As for UCK2 (UniProt Q9BZX2), the log2 fold change was inactive: -0.01.
